From PubChem BioAssay AID2685 (National Center for Advancing Translational Sciences (NCATS), 2010)
The other results are listed elsewhere or left out. Shown are side measurements of this screen, not its main read-out; they come without a call. Compounds called inactive in the main read-out are mostly missing here. Words in brackets tell the shape of the fitted curve; partial curves, single points and poor fits give uncertain potencies.

Assay: qHTS Assay for Lipid Storage Modulators in Drosophila S3 Cells;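 on cell number change: cells counted by Cell Tracker Red CMTPX staining in the red channel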
Settings: BODIPY lipid droplet fluorescence, 18-24 h; for cell number change: measured here: cell count max response, cells fed with added oleic acid
Method in brief: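 Drosophila S3 cells loaded with oleic acid (400 uM, as added) and compounds at several concentrations; lipid droplets imaged by 488-nm laser-scanning cytometry, 500–530 nm intensity and object ratio to cell channel. Percent activity normalized to 20 uM Triacsin C.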

[1] = measured here: cell number channel AC50, cells fed with added oleic acid
[2] = measured here: lipid fluorescence (Fed channel) AC50, cells fed with added oleic acid

Row | SMILES | cell number change [%] | AC50 [1] | AC50 [2]
1 | COc1cc(NC(=O)CN2CCN(c3ccccc3)CC2)c(C)cc1[N+](=O)[O-] | -36.3 | 13 µM [falling, partial curve] | 7.31 µM [falling, single point]
2 | CC1CCCCN1CCNC(=O)c1cnn2ccccc12 (stereo not drawn) | -75.7 | 16.4 µM [falling, single point] | –
3 | Cc1ccc(C2=[N+]([O-])C3(CCCCC/C3=N\NC(N)=S)N(O)C2(C)C)o1 (stereo not drawn) | 3.62 | – | 1.64 µM [falling, partial curve]
4 | CC(C)CCn1nc(C(=O)Nc2nc3c(s2)CCCC3)c2ccccc2c1=O | – | 1.84 µM [rising, partial curve] | 13 µM [rising, partial curve]
5 | O=C(Oc1ccc(N(C(=O)c2ccncc2)S(=O)(=O)c2cccs2)cc1)c1ccncc1 | -24.2 | – | 18.4 µM [falling, single point]
6 | CCc1ccc(OC)c(S(=O)(=O)NCc2cccs2)c1 | -8.16 | – | 10.3 µM [rising, partial curve]
7 | O=[N+]([O-])c1cccc(/C=C/c2nc(C=Nc3ccccc3)c(O)o2)c1 | – | – | 6.51 µM [rising, partial curve]
8 | C[C@H](NC(=O)OC(C)(C)C)c1nnc(SCC(=O)Nc2ccc(Br)cc2)o1 | 0.257 | – | 3.66 µM [rising, single point]
9 | Cc1ccc(N(CC(=O)Nc2cccc(N(C)S(C)(=O)=O)c2)S(C)(=O)=O)cc1 | 44 | 1.84 µM [rising, partial curve, poor fit] | –
10 | CC(C)(C)c1ccc(Cn2nnc3c(=O)[nH]c(C4CCCN(C(=O)c5ccco5)C4)nc32)cc1 (stereo not drawn) | -15.8 | – | 0.112 µM [rising, full curve, poor fit]
11 | O=C(NCc1ccco1)/C(=C\c1cccnc1)NC(=O)c1ccccc1F | -28.4 | – | 23.1 µM [falling, partial curve]
12 | O=C(COc1ncnc2cc([N+](=O)[O-])ccc12)NC1CCCCC1 | 20.6 | 0.164 µM [falling, full curve] | –
13 | CCn1c(=O)n(CC)c2cc(N3CCCC3)c(NC(=O)c3c(F)cccc3F)cc21 | 5.73 | – | –
14 | Cc1ccc(S(=O)(=O)N2CCC(=O)N(C(COCc3ccc(C(F)(F)F)cc3)C(C)C)CC2)cc1 (stereo not drawn) | 30.5 | 20.6 µM [rising, single point] | –
15 | C=CCc1c(C)nc(C)nc1N/N=C/c1ccc([N+](=O)[O-])cc1 | – | – | 0.58 µM [rising, single point]
16 | O=S(=O)(Nc1cc(S(=O)(=O)N2CCOCC2)ccc1N1CCCC1)c1cccs1 | 52.1 | – | 3.26 µM [rising, partial curve, poor fit]
17 | Cc1ccc(C)c(Cn2c(=O)n(CCCC(=O)NCc3ccco3)c(=O)c3sccc32)c1 | – | 1.84 µM [rising, partial curve] | 1.84 µM [rising, partial curve]
18 | Nc1nc(Nc2cccc(Cl)c2)nc(NCCO)c1[N+](=O)[O-] | 26.4 | – | 25.9 µM [rising, single point]
19 | COc1ccc(N(CC(=O)N2CCCC(C)C2)S(=O)(=O)c2c(C)nn(C)c2C)cc1 (stereo not drawn) | 14.5 | 0.13 µM [rising, full curve, poor fit] | –
20 | COc1ccc(C2=NN(C(=O)CSc3nnc(-c4ccccc4F)o3)C(c3ccco3)C2)cc1 (stereo not drawn) | 7.4 | – | 3.26 µM [rising, partial curve]

Shown as tab-separated lines: two of the compounds above
Row	SMILES	cell number change [%]	AC50 [1]	AC50 [2]
13	CCn1c(=O)n(CC)c2cc(N3CCCC3)c(NC(=O)c3c(F)cccc3F)cc21	5.73	–	–
14	Cc1ccc(S(=O)(=O)N2CCC(=O)N(C(COCc3ccc(C(F)(F)F)cc3)C(C)C)CC2)cc1 (stereo not drawn)	30.5	20.6 µM [rising, single point]	–

(further entries)

Row | SMILES | cell number change [%] | AC50 [1] | AC50 [2]
21 | O=C(NC1CC(=O)c2sccc21)c1ccc(Cl)cc1Cl (stereo not drawn) | -2.15 | 0.092 µM [falling, full curve, poor fit] | –
22 | CC1CN(c2ncnc3c2c(-c2ccccc2)cn3-c2ccc(F)cc2)CC(C)O1 (stereo not drawn) | 4.08 | 3.66 µM [rising, partial curve, poor fit] | –
23 | O=C(CSc1n[nH]c(-c2ccccc2)n1)c1ccc(O)c(O)c1 | -9.12 | 0.00517 µM [falling, full curve, poor fit] | 0.13 µM [falling, full curve]
24 | O=C(c1ccc2c(c1)OCCO2)C1CCN(S(=O)(=O)c2ccc(F)cc2)CC1 | 2.16 | – | 20.6 µM [falling, partial curve]
25 | c1ccc(-c2cc(-c3nc(-c4cccnc4)no3)c3ccccc3n2)cc1 | 16.6 | – | 0.13 µM [rising, full curve]
26 | O=c1cccc2n1Cc1cc3ccccc3nc1-2 | 23.2 | – | 29.1 µM [rising, single point]
27 | COc1cccc(CN2CCN(CCCc3ccccc3)C(CCO)C2)c1O (stereo not drawn) | 10.1 | – | –
28 | O=C(Nc1nccs1)c1ccc(COc2ccccc2Br)o1 | – | 5.8 µM [rising, single point] | –
29 | Cc1cc(N2CCOCC2)nc(-c2ccc(Br)cc2)n1 | -7.65 | – | 1.3 µM [rising, full curve]
30 | CN(C)c1nc(Nn2cnnc2)nc(N(C)C)n1 | 29.9 | 2.31 µM [rising, full curve, poor fit] | –
31 | O=C(Nc1ccncc1)Nc1ccc(Cl)cc1Cl | -20.8 | – | 29.1 µM [rising, single point]
32 | CN(C)CCCn1c2c(c(SCC(=O)Nc3ccc4c(c3)OCCO4)nc1=O)CCC2 | 18.9 | – | –
33 | COc1ccc(Nc2nc(C)cc(=O)[nH]2)c(OC)c1 | 77.3 | 16.4 µM [rising, partial curve] | 1.46 µM [rising, full curve, poor fit]
34 | COc1ccc(F)cc1S(=O)(=O)N1CCC2(CC1)OCCN2S(=O)(=O)c1cccs1 | 38.4 | 8.2 µM [rising, partial curve] | 10.3 µM [rising, partial curve]
35 | COCCn1cnnc1SCC(=O)Nc1cccc(S(=O)(=O)N(C)c2ccccc2)c1 | 33.9 | – | –
36 | CCOc1ccccc1NC(=O)c1ccc2nccnc2c1 | 6.21 | – | 0.92 µM [rising, full curve]
37 | COc1ccc(-c2nnc3n2N=C(C)CS3)cc1OC | -12.6 | – | 3.26 µM [rising, full curve]
38 | CCOC(=O)CC1(C)SC(NC(C)=O)=NN1C(C)=O (stereo not drawn) | -44.6 | 25.9 µM [falling, partial curve] | 20.6 µM [falling, partial curve]
39 | O=C1CCc2cc(S(=O)(=O)N3CCCCC3)cc3c2N1CC3 | -5.76 | – | 29.1 µM [falling, single point]
40 | O=C(Nc1nc2ccc(SC(F)F)cc2s1)c1ccc2c(c1)S(=O)(=O)c1ccccc1C2=O | 9.17 | – | 6.51 µM [falling, single point]

Full records, looked up by structure. Values in the order: cell number change [%]	AC50 [1]	AC50 [2]
O=C(Nc1nccs1)c1ccc(COc2ccccc2Br)o1 is listed with –	5.8 µM [rising, single point]	–
COCCn1cnnc1SCC(=O)Nc1cccc(S(=O)(=O)N(C)c2ccccc2)c1 is listed with 33.9	–	–
CN(C)CCCn1c2c(c(SCC(=O)Nc3ccc4c(c3)OCCO4)nc1=O)CCC2 is listed with 18.9	–	–
COc1ccc(Nc2nc(C)cc(=O)[nH]2)c(OC)c1 is listed with 77.3	16.4 µM [rising, partial curve]	1.46 µM [rising, full curve, poor fit]

Additional entries follow:

Row | SMILES | cell number change [%] | AC50 [1] | AC50 [2]
41 | COc1ccc(S(=O)(=O)NC2CCCCCC2)c(OC)c1 | 4.48 | 1.64 µM [rising, single point] | 0.00517 µM [rising, full curve, poor fit]
42 | COc1ccc(NC(=S)NCc2ccccc2)c(OC)c1 | -23.3 | – | 18.4 µM [falling, single point]
43 | O=C(CCS(=O)(=O)c1ccccc1)NC1CCCCC1 | 35.3 | 29.1 µM [rising, single point] | 0.0326 µM [rising, full curve, poor fit]
44 | CCn1c(SCC(=O)NCCOC)nc2sc3c(c2c1=O)CCCC3 | -24.4 | – | –
45 | Cn1c(Cl)nc2c1c(=O)n(Cc1cccc(Br)c1)c(=O)n2C | 99.1 | 10.3 µM [rising, partial curve] | –
46 | O=C(NCCN1CCOCC1)c1ccc(NS(=O)(=O)c2cccc([N+](=O)[O-])c2)cc1 | 24.8 | – | 29.1 µM [rising, single point]
47 | Cc1ccc(Nc2ccc([N+](=O)[O-])cn2)cc1Cl | -8.24 | – | 20.6 µM [falling, single point]
48 | CC(C)(C)c1ccc(-n2ncc3c2CCCC3NC(=O)C2=NNC(=O)CC2)cc1 (stereo not drawn) | -39.1 | 32.6 µM [falling, single point] | –
49 | COC(=O)C1=C(C)N(c2ccc(OC)cc2)C(C)=C(C(=O)OC)C1c1ccc(OC)cc1 | 21.3 | – | 10.3 µM [rising, partial curve]
50 | CCCOc1ccccc1OCC(=O)Nc1cccc(S(=O)(=O)NC2=NCCC2)c1 | -94 | 29.1 µM [falling, single point] | –
51 | CCCCn1c(N)c(Sc2ccc(C)cc2)c(=O)[nH]c1=O | – | – | 0.0058 µM [falling, full curve, poor fit]
52 | CCOc1ccccc1NC(=O)CSc1nnnn1C1CCCC1 | -12.8 | – | –
53 | O=[N+]([O-])c1ccccc1N/N=C1\CCc2ccccc21 | -42.6 | 6.31 µM [falling, full curve] | 7.08 µM [falling, full curve]
54 | CCCCN(CCCC)CCNC(=O)c1cn(CC)c2ccc(S(=O)(=O)N3CCCC3)cc2c1=O | 10.9 | – | 16.4 µM [rising, partial curve, poor fit]
55 | CCCc1nc2sc3c(c2c(=O)n1NC(=O)CCC(=O)O)CCCC3 | -47.7 | 0.00517 µM [falling, full curve, poor fit] | 0.82 µM [falling, full curve, poor fit]
56 | COc1cccc(-c2cc(C(=O)NCc3ccc(Cl)cc3)no2)c1 | – | – | 25.9 µM [falling, partial curve, poor fit]
57 | COc1ccccc1NS(=O)(=O)c1ccc(NC(=O)c2nc3nc(C)cc(C(F)F)n3n2)cc1 | 18.1 | – | 0.326 µM [rising, partial curve, poor fit]
58 | CCOc1ccc(C(=O)OCC(=O)NCCNC(=O)COC(=O)c2ccc(OCC)cc2)cc1 | – | – | 1.03 µM [rising, single point]
